Results are given in words; binding and its absence hold for the method and conditions named. A result given as binding can be weak or reduced; the word gives no strength. Tags and fused reporters may be left off the sequences shown.
Tests used:
[1] = target: extracellular part of mouse (mus musculus) TL1A protein (mouse); assay: ELISA on coated extracellular part of TL1A, HRP anti-human IgG detection
[2] = target: extracellular part of mouse (mus musculus) TL1A protein (mouse); assay: ELISA on coated extracellular part of TL1A (2 µg/mL), dose dilution of chimeric 5G6, HRP anti-human IgG
[3] = target: extracellular part of mouse (mus musculus) TL1A protein (mouse); assay: ELISA on coated extracellular part of TL1A (legend of FIG. 4)

binding [1]: binds | binding [2]: binds | binding [3]: binds
B1: 5G6 chimeric antibody (murine 5G6 variable domains fused to human IgG1 heavy chain constant domains and a human kappa constant domain) (antibody, V domains shown)
VH: QVQLQQPGSVLVRPGASVKVSCKASGYTFTSSWMHWAKQRPGQGLEWIGEIHPNSGGTNYNEKFKGKATLTVDTSSSTAYVDLSSLTSEDSAVYYCARGDYYGYVSWFAYWGQGTLVTVSS
VL: DIQMNQSPSSLSASLGDTITITCHASQNINVLLSWYQQKPGNIPKLLIYKASNLHTGVPSRFSGSGSGTGFTFTISSLQPEDIATYYCQQGQSYPYTFGGGTKLEIKR
notes: Human IGHG1 / kappa chimera; also called Chimera; parental 5G6

Reference: patent US20140308271A1 (GLENMARK PHARMACEUTICALS S A, published 2014)
